We go through four molecules from patent publication US20180291096A1.

By UniProt entry, the sequences of proteins in these tests, tags left out. Where a name states a change or a piece, a line headed by the entry shows the natural chain unless it says otherwise.
UniProt P29460: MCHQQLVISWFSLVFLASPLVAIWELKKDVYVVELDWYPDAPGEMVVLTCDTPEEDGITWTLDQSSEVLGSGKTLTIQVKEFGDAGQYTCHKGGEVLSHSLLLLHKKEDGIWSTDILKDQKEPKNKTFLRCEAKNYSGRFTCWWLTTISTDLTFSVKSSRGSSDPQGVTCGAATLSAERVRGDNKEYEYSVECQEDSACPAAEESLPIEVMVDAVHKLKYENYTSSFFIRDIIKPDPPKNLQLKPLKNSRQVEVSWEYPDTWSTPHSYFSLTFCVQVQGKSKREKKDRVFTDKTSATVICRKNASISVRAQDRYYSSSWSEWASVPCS

No constants are given. Whether binding was seen depends on the method and setting. Some entries that bind do so weakly or less than the wild type.

The assay concerns the target linked rhIL-23 with no His-tag (from R&D Systems) (human) (UniProt P29460). Description: ELISA, antigen in solution on immobilized Fab.

B1: MOR04658 Fab (Fab, V domains shown)
VH: QVQLVESGGGLVQPGGSLRLSCAASGFTFSSFGMSWVRQAPGKGLEWVSNISSSGSSTYYADSVKGRFTISRDNSKNTLYLQMNSLRAEDTAVYYCARYWGTPYLMQFDNWGQGTLVTVSS
VL: DIALTQPASVSGSPGQSITISCTGTSSDVGGYNSVSWYQQHPGKAPKLMIYSVSSRPSGVSNRFSGSKSGNTASLTISGLQAEDEADYYCSSYDTNKPLVVFGGGTKLTVL
On to B1, for which the binding result was “binds”.

B2: MOR04217 Fab (Fab, V domains shown)
VH: QVQLVESGGGLVQPGGSLRLSCAASGFTFSSYWITWVRQAPGKGLEWVSYISSSGSSTYYADSVKGRFTISRDNSKNTLYLQMNSLRAEDTAVYYCARGTFWSFGNYFANWGQGTLVTVSS
VL: DIVLTQSPATLSLSPGERATLSCRASQSIFYNLAWYQQKPGQAPRLLIYGASNRATGVPARFSGSGSGTDFTLTISSLEPEDFATYYCQQYSSEPVTFGQGTKVEIK
Regarding B2, the binding result was “binds”.

B3: MOR04205 Fab (Fab, V domains shown)
VH: QVQLVQSGAEVKKPGESLKISCKGSGYSFTNYWISWVRQAPGKGLEWMGWIRPGDSDTRYSPSFEGQVTISADKSISTAYLQWSSLKASDTAMYYCARHYYGMDYWGQGTLVTVSS
VL: DIVLTQPPSVSGAPGQRVTISCSGSSSNIGSYYVNWYQQLPGTAPKLLIYGNTHRPSGVPDRFSGSKSGTSASLAITGLQSEDEADYYCQTYASLGPGEVFGGGTKLTVL
Regarding B3, the binding entry was “binds”.

B4: MOR04649 Fab (Fab, V domains shown)
VH: QVQLVQSGAEVKKPGESLKISCKGSGYSFSNYWIGWVRQMPGKGLEWMGIIDPSNSYTNYSPSFQGQVTISADKSISTAYLQWSSLKASDTAMYYCARWYYKPFDVWGQGTLVTVSS
VL: DIVLTQPPSVSGAPGQRVTISCTGSSSNIGSGYDVHWYQQLPGTAPKLLIYGNSKRPSGVPDRFSGSKSGTSASLAITGLQSEDEADYYCSSWTPSSVVFGGGTKLTVL
As to B4, the binding result is recorded as “binds”.
